# Source: patent publication US10329302B2, “Bicyclic-fused heteroaryl or aryl compounds” (Pfizer Inc., priority 2014, dated 2019)
# At least one structure is not confirmed: it was looked up by name or label, or the drawing left a doubt.
# Test system: Female Balb/C mice
# Test: Imiquimod Induced Mouse Model of Skin Inflammation
# Assay type: in vivo
# Details: day 5, compared to Vehicle; Example 296 PO BID daily×5 days, P40 Ab IP day 1, 4
compound,measurement,value
"CC[C@@H]1[C@H](F)C(=O)N[C@@H]1COc1nccc2cc(C(N)=O)c(OC)cc12 [Example 296, 1-{[(2S,3S,4S)-3-ethyl-4-fluoro-5-oxopyrrolidin-2-yl]methoxy}-7-methoxyisoquinoline-6-carboxamide]",Mean change in ear swelling from baseline,significantly reduced ear swelling
